According to PMC8187409, “The zinc-finger protein Red1 orchestrates MTREC submodules and binds the Mtl1 helicase arch domain” (Nature Communications, 2021):
No constants are given. Whether binding was seen depends on the method and setting. Binding can be weak; no strength is given. For some assays here: Where a sequence is shown, tags or fusion partners need not be part of it. Blank lines part the entries; values can stand above or below the molecule they belong to.

Legend:
[1] = target: T1, Red1 187–236 fragment (GST pull-down) (S. pombe) (UniProt Q9UTR8); assay: pull-down; GST pull-down: bait with 1.5 molar excess of prey, 20 mM HEPES pH 7.5, 150 mM NaCl (or higher, up to 600 mM or 1.5 M in the washes), 5% glycerol, 0.1% NP-40, 4 °C, glutathione agarose; SDS-PAGE, Coomassie; both purified
T1 sequence: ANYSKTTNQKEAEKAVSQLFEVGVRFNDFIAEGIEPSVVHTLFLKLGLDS

[2] = target: T2, Red1 (spRed1), full length (S. pombe) (UniProt Q9UTR8); assay: two-hybrid; Gal4 BD and AD fusions (pGBKT7/pGADT7 or pG4BDN22/pG4ADHAN111) co-transformed into PJ69-4A; growth after 3 days at 30 °C on SDC-His (weak), SDC-His + 1 mM 3-AT (medium), SDC-Ade (strong)
T2 sequence: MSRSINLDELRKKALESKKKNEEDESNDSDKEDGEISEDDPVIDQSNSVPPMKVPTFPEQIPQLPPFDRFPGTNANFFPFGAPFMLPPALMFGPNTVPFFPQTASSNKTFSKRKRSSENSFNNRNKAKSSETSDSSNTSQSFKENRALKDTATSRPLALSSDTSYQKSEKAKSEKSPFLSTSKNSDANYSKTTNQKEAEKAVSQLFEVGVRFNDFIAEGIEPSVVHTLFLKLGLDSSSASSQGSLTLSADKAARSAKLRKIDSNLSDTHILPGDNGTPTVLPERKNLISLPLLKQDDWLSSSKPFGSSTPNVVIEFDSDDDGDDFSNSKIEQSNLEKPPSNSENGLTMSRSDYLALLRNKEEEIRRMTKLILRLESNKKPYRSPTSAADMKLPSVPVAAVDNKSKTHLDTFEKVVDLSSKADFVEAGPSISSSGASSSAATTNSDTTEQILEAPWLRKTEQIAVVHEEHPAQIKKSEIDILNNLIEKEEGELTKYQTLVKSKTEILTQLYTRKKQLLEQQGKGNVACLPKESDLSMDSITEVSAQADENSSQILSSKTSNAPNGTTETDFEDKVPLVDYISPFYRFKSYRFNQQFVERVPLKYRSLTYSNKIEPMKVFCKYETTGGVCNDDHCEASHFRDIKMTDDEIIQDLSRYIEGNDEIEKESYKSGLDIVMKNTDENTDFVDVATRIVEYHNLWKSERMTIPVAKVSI

[3] = target: T3, Red1 C-terminal region (residues 345–712) (S. pombe) (UniProt Q9UTR8); assay: as above
T3 sequence: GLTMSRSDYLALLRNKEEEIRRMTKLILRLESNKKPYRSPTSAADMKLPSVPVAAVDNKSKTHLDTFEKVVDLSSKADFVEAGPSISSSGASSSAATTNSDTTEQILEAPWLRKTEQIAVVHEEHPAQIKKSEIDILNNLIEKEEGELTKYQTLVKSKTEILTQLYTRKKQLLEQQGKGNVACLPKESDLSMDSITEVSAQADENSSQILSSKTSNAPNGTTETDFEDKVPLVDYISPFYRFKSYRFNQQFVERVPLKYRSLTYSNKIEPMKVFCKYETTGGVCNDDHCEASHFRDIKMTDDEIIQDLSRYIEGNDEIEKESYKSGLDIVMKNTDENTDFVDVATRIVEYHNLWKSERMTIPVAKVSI

[4] = target: T4, Red1 N-terminal region (residues 1–187) (S. pombe) (UniProt Q9UTR8); assay: as above
T4 sequence: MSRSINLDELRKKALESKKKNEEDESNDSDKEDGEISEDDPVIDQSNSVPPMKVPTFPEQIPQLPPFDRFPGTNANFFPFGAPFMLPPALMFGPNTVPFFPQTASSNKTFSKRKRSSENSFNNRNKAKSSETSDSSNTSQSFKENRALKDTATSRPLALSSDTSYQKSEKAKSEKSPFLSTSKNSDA

[5] = target: Rmn1 (spRmn1), full length (S. pombe); assay: as above
[6] = target: Red5 (spRed5), full length (S. pombe); assay: as above
[7] = target: Iss10, full length (S. pombe); assay: as above
[8] = target: Rmn1 C-terminal region (residues 326–589) (S. pombe); assay: as above

Molecule: Iss10 1–51 fragment (GST pull-down) (S. pombe) (domain or fragment)
- binding [1]: binds

Molecule: Iss10, full length (S. pombe)
- binding [2]: binds

Molecule: Red5 (spRed5), full length (S. pombe)
- binding [2]: binds

B3: Pab2 lacking its C-terminal region (residues 137–166) (domain or fragment, UniProt O14327 1-136)
chain: MSDQDALDTQEKELLEMKERVAEMEAEAAKLRAMQEQLDNETEALRNDKESIDAQSVYVGNVDYSVTPEELQSHFASCGSVNRVTILCDKFTGHPKGFAYIEFSEPSLVPNALLLNGSMLHERPLKVTPKRTNVPG
- binding [8]: binds

The remaining lines, values ahead:

- binding [3]: binds
- binding [2]: binds
- binding [4]: binds
Molecule: Rmn1 (spRmn1), full length (S. pombe)

- binding [5]: binds
- binding [6]: binds
B1: Pab2 (spPab2), full length (protein, UniProt O14327 1-166)
chain: MSDQDALDTQEKELLEMKERVAEMEAEAAKLRAMQEQLDNETEALRNDKESIDAQSVYVGNVDYSVTPEELQSHFASCGSVNRVTILCDKFTGHPKGFAYIEFSEPSLVPNALLLNGSMLHERPLKVTPKRTNVPGMSRGRGRGRGRGRGRGRGGYRGRARGFAPY

- binding [5]: binds
- binding [7]: binds
B2: Mmi1 (spMmi1), full length (protein, UniProt O74958 1-488)
chain: MSNTNFSTSRSSKSIPELPNLEALRSLWPPPSLNESGDTRSVWTTHTGEPVASSVLSTSGSNNFSSPLKRPAPESHDAPIGRRLMVDDPRLIKHGKYDFSRHCTDYGHSYEWPYFRSLRRESMLYHTSGSYPESQPPYSSYSTDAPHYYHAGSESSAYYDSRSRLHGIQPPPKRRTLSPPPRRLADPVVVGSSRYVEEEVYRRPPYTLASEVPSSASAYQAGYSSYPVRSSPQLSHEDTRHGIASSGSTRYPFVPANTRASHSPSLLEPYAHSLPSSVAPVGAYPEKSSYLLSNSSNDSASRKEKPKARASTPPPLNFSRASEHRNEKGERISMINPRVVLDENGISHRSRYFIMLCDNETAIAHAKKTSIWAVKKDSSKRISDAYKKASVYFIFVAQQTYNALGYAQVVSDLNSTELPFWSDSSHAGGVRIKWIKTCNLFSAEISEIVSHMDHGSEARDGMEMMYDEGSRLCTLINYAIMKRIGRDR
